Assay results reported in PMC7819943, “Rice protein-binding microarrays: a tool to detect cis-acting elements near promoter regions in rice”.
This is one part of the list.

These sequences were tested against T1, OsSMF1 (Oryza sativa, UniProt Q6ZLB0 1-436) (assay: protein-binding microarray (RPBM); PBS, 2% BSA, 51.3 ng/ul salmon testes DNA, 50 uM zinc acetate, 200 nM TF, 25 C, 1 h; high values mean tight binding). Conditions: protein: recombinant; tags: N-terminal polyhistidine and DsRed monomer fusion (pET32a); chain copies: 2; label: CyDye5-dUTP incorporated in the synthesized complementary strand; 3' TTTTT single-stranded linker to array surface; dsDNA, one strand shown.
T1 sequence: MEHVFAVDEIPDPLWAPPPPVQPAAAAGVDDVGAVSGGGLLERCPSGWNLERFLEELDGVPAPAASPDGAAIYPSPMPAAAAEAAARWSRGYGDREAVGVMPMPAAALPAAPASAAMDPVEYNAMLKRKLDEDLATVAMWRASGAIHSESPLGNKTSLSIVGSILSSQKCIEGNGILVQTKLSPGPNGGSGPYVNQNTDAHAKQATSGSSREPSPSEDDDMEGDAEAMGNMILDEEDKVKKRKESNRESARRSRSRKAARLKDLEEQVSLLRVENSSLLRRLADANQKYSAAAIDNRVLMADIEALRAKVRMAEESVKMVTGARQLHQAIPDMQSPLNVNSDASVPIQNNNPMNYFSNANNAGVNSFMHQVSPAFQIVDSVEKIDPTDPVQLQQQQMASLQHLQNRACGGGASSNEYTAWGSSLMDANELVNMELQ
Procedure, shortened: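 Transcription factors were made in E. coli BL21-CodonPlus as N-terminal fusions to a polyhistidine tag and DsRed, then purified on Ni–NTA. After primer extension with Cy5-dUTP and blocking with 2% BSA, a custom Agilent array was exposed for 1 h at 25 °C to 200 nM protein in PBS, 2% BSA, salmon testes DNA and 50 µM zinc acetate. Washed arrays were scanned on an Axon 4000B, and the binding signal is per-feature fluorescence intensity in arbitrary units.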

Sequence	binding signal
TGTAGTGTTACAGTATGCCACGTCATCATGCTACGCTATTCGGAGTCACCTAGTGCAG	43900 fluorescence intensity (a.u.)
TGGGCCAAATCCCACGTGTCAACCTGTTCTGATCCCACACCGGAGTCACCTAGTGCAG	19600 fluorescence intensity (a.u.)
GCGCCACCGATCGAATTCACGACTGAATTAGTTTCTTCTTCGGAGTCACCTAGTGCAG	4070 fluorescence intensity (a.u.)
GGTCGCGGGACCGACGCGTCAGATGCCTCGTCCGGCCGTGCGGAGTCACCTAGTGCAG	5350 fluorescence intensity (a.u.)
TTATATTTGTTGCAAAACACGTATGTATAATTTATCTAGTCGGAGTCACCTAGTGCAG	4620 fluorescence intensity (a.u.)
GTCCTACACGCTTGAAGGCGGACTATGCGTCTATGCCCTACGGAGTCACCTAGTGCAG	14600 fluorescence intensity (a.u.)
CAACCACCACGCAAACAAACACGAAGTTCGCGCCGTCGACCGGAGTCACCTAGTGCAG	3650 fluorescence intensity (a.u.)
CGCACCTGCGTACGATCGACGTGTAGTCGTTATCTGTCTCCGGAGTCACCTAGTGCAG	5310 fluorescence intensity (a.u.)
TAGATCTTGGGTGGATGTGGCTAGAGGGATGGTGGACGAACGGAGTCACCTAGTGCAG	3200 fluorescence intensity (a.u.)
TGATCACGTGACAGCTGGACCCCACGTCACGCCCACACACCGGAGTCACCTAGTGCAG	24700 fluorescence intensity (a.u.)
TCATCCAAGCACAAATTGCTATATTTTGGGACGGATGGAGCGGAGTCACCTAGTGCAG	16600 fluorescence intensity (a.u.)
CGGACAGCCCCAACACCGACGGCATCCACGTCGCGCTGTCCGGAGTCACCTAGTGCAG	4070 fluorescence intensity (a.u.)
CAGAGGAAGGGAAAGAAAGCTCCAATCTCGCCTCTGCTCCCGGAGTCACCTAGTGCAG	15000 fluorescence intensity (a.u.)
TTCATAGAGAGGGCCGGCAACGGCCTAGGCACGCTGGTGTCGGAGTCACCTAGTGCAG	34700 fluorescence intensity (a.u.)
GCCTCAGCCGCCCTGACATGGCACGGGCTTCCCCGTGCGGCGGAGTCACCTAGTGCAG	5710 fluorescence intensity (a.u.)
TATTCCCGCACGTGGCCGTAATGTTGGTCCGTCAGTTACACGGAGTCACCTAGTGCAG	3160 fluorescence intensity (a.u.)
GACCCTTGCCTTGACGTCAAAGCATGAATAGTTAAGTACGCGGAGTCACCTAGTGCAG	3190 fluorescence intensity (a.u.)
CCACTTCACCATCTTGTCATGTCTTCCTCCACGCTTCTGCCGGAGTCACCTAGTGCAG	3230 fluorescence intensity (a.u.)
CCTGGGCGCTTCCATCAACTCGACCAGTTGGATCGACATGCGGAGTCACCTAGTGCAG	5430 fluorescence intensity (a.u.)
TACCCTCCTCTTCCTCTACACCTCATACTCCTAGCTCTCTCGGAGTCACCTAGTGCAG	3770 fluorescence intensity (a.u.)
TCGAGGCGCACGTGGCCCGTGCTGCGGCGGCCACGTGGGCCGGAGTCACCTAGTGCAG	10400 fluorescence intensity (a.u.)

Sequence	binding signal
CCATGTCCTTTCCGCTAGTTGACCGTTAGTTGACTGTTAACGGAGTCACCTAGTGCAG	3340 fluorescence intensity (a.u.)
TTTTGACCAACATCAGGTCAACCGGATCGACGTGGTCACGCGGAGTCACCTAGTGCAG	4270 fluorescence intensity (a.u.)
TTGGGGTTTCGGGATGTCATACAAACTTGTCGTAAAGTTGCGGAGTCACCTAGTGCAG	6700 fluorescence intensity (a.u.)
ATCATGTCGTCGTTGCGTCGTCATCGTTGTTCTTCGTCGACGGAGTCACCTAGTGCAG	9230 fluorescence intensity (a.u.)
TCTAGAGGGGAATATATAGTATGACTCTTTTCTTCTGTTGCGGAGTCACCTAGTGCAG	3350 fluorescence intensity (a.u.)
TTGTCATGGCTGAGTCATGAAATGTATAGTTCAATCTTGCCGGAGTCACCTAGTGCAG	11400 fluorescence intensity (a.u.)
ATTCAGCACATGCCTTATACATGTCATGGCAAAACGCTGACGGAGTCACCTAGTGCAG	3790 fluorescence intensity (a.u.)
TTCAATCCTGGGCCACGGCATGCATTTCGATCACCTCGTCCGGAGTCACCTAGTGCAG	3190 fluorescence intensity (a.u.)
TTCTTCCCCTCGCATACGTGCGCAATACATAGTGCATTCCCGGAGTCACCTAGTGCAG	4160 fluorescence intensity (a.u.)
GGCGGCGATGGCCCTCTGACGCGACGCGCGCCTTTCTCTGCGGAGTCACCTAGTGCAG	3970 fluorescence intensity (a.u.)
AATAGAACGGGACGTGGCTGCTCGGCACCTTCGCCTTCGCCGGAGTCACCTAGTGCAG	4200 fluorescence intensity (a.u.)
ACGGACGGGCGTCGGCGCGGGCGATGACGGACTGACGACGCGGAGTCACCTAGTGCAG	3490 fluorescence intensity (a.u.)
GTCACTCCACTGCACTCCTATTAATAATCCTTCTGACTCACGGAGTCACCTAGTGCAG	4740 fluorescence intensity (a.u.)
AGGGGTTGGTAATTGGCAGGGAATTCCTCCTTTACTTCGCCGGAGTCACCTAGTGCAG	3340 fluorescence intensity (a.u.)
CGTCCTGATATTTCTGCACGTACGTAGTGCTACTTTGCTACGGAGTCACCTAGTGCAG	3860 fluorescence intensity (a.u.)
GGCAGGTGGCCTGTACCAGGAACATGTCACAACCACGCACCGGAGTCACCTAGTGCAG	3360 fluorescence intensity (a.u.)
AAATTTATTACTCCTACAAGGACACCGTCACAGTCCACACCGGAGTCACCTAGTGCAG	3770 fluorescence intensity (a.u.)
CGCTCGCGTCGCGCCCATCTCCACCAATCCACCACCGCCACGGAGTCACCTAGTGCAG	3910 fluorescence intensity (a.u.)
AAAGCCAAAATAATACGCATGTATGATGTGGTGCTACATTCGGAGTCACCTAGTGCAG	4650 fluorescence intensity (a.u.)
ACACAGCAAAGCATCATCATCAGTTCATCACATCACAAGACGGAGTCACCTAGTGCAG	3350 fluorescence intensity (a.u.)
GCAAGCAAAGCAAGAAACCCAAACTTTTGGTCCAGACTCCCGGAGTCACCTAGTGCAG	5120 fluorescence intensity (a.u.)

Sequence	binding signal
CGCACAGCTGCCAGACCAGTGACACCGACGAAACTTCACTCGGAGTCACCTAGTGCAG	3300 fluorescence intensity (a.u.)
TGATGCAAGCTTCGTTAGACTAACTGGAATAGAAGCACTTCGGAGTCACCTAGTGCAG	19400 fluorescence intensity (a.u.)
TTACGCAAAGGAAGAGAATACGCTTTCTGTTCGAGTTCACCGGAGTCACCTAGTGCAG	20700 fluorescence intensity (a.u.)
GTCCAGCGCGAGCTCCGCCAGGCGTCCCCACCACGTGGTGCGGAGTCACCTAGTGCAG	7470 fluorescence intensity (a.u.)
CCATCTATCATCCGCATCTCAGCTCGTTGCCCAGCATCTTCGGAGTCACCTAGTGCAG	31800 fluorescence intensity (a.u.)
ATGGGCCATGGCCCATCCGTGCCACGTGTCGCATGCTCCTCGGAGTCACCTAGTGCAG	27900 fluorescence intensity (a.u.)
CTCCCAGCCGTCTATGTATGCGTGTACGTATGCACGATCGCGGAGTCACCTAGTGCAG	6040 fluorescence intensity (a.u.)
TAGTTCTAGCTTCCTAATGACGTGGAGCTTATGAAACTATCGGAGTCACCTAGTGCAG	13800 fluorescence intensity (a.u.)
CTCTGCTCTCAAATGCTCTGTGTGCGATCAGGTATTCATGCGGAGTCACCTAGTGCAG	3270 fluorescence intensity (a.u.)
TTTGCCTACTCATCACCACATGTATAAAGTGTAAACTTTACGGAGTCACCTAGTGCAG	5240 fluorescence intensity (a.u.)
GAGATGTCTGAACAAACAGATGGACGTGTAATGTTGTGGACGGAGTCACCTAGTGCAG	3400 fluorescence intensity (a.u.)
TGGATCTGGAAAACAGTCGTGCTCTATTATATTGAGTCATCGGAGTCACCTAGTGCAG	5210 fluorescence intensity (a.u.)
AGTTTGTATACACATATGTAAAGTTTGTATATGCGTATGCCGGAGTCACCTAGTGCAG	4510 fluorescence intensity (a.u.)
TTTAGCACGCGTCACCAACAAATGTACAGAGTATGTTACCCGGAGTCACCTAGTGCAG	5890 fluorescence intensity (a.u.)
ATATATTGTTTGTCACGCTATGTTTCCCATCATCATTCTTCGGAGTCACCTAGTGCAG	3730 fluorescence intensity (a.u.)
AGCTACCAGTGATGAGAGCGCCACGTTTCGCCCTAGCAGCCGGAGTCACCTAGTGCAG	4740 fluorescence intensity (a.u.)
GGTCCTCAAACTTGTTCGACTGTGTCATCCCAGTCTCTAACGGAGTCACCTAGTGCAG	4880 fluorescence intensity (a.u.)
AAAGTATATTTAACCATGAATCAAATGATAGGAAAAGAATCGGAGTCACCTAGTGCAG	29200 fluorescence intensity (a.u.)
TTTGCCCACTTCTACCGTGCGGGTCCCACACTGGCATCCACGGAGTCACCTAGTGCAG	3380 fluorescence intensity (a.u.)
GTTTTCCACTTTTCCACTGTACGTCAGGTCAATCAGCCGCCGGAGTCACCTAGTGCAG	5190 fluorescence intensity (a.u.)
GCTGAAGGAGGTCGACCAAATGTTATCAAGATTGAAAGAGCGGAGTCACCTAGTGCAG	3170 fluorescence intensity (a.u.)

Sequence	binding signal
GGCCTCACGGGCGGAGGAGCGTGGCCACCACCACCACGGCCGGAGTCACCTAGTGCAG	3590 fluorescence intensity (a.u.)
TCTCGCCGGTCGACGGCGCGATGCTGCGCGGATTCCCTCACGGAGTCACCTAGTGCAG	4490 fluorescence intensity (a.u.)
ACCTGTCAGTGGGCCCCACCCCGCACTGGACCCACCTATCCGGAGTCACCTAGTGCAG	3460 fluorescence intensity (a.u.)
AACCTAAACCTTTCTTGGTCCTGGTCCACATCACGATTGTCGGAGTCACCTAGTGCAG	4310 fluorescence intensity (a.u.)
TAATTCCAAGCTTGTTTCACCGACCTGCCAAACTCGATTGCGGAGTCACCTAGTGCAG	3270 fluorescence intensity (a.u.)
GAGAGACCACGACACAGCCAACCCACGCGCCGCGTGGCGCCGGAGTCACCTAGTGCAG	4230 fluorescence intensity (a.u.)
CCTTTTCACGTGCCGCGCGCCACGTGTTGCGGCGAGACCACGGAGTCACCTAGTGCAG	11800 fluorescence intensity (a.u.)
CTTCTCCCGGCGAGGCGTCACCCTCAGCAGCCACACGAGACGGAGTCACCTAGTGCAG	3150 fluorescence intensity (a.u.)
TGTCAAATTGATCCAACGATGAGGTGGATCCTACGAGGAGCGGAGTCACCTAGTGCAG	5730 fluorescence intensity (a.u.)
ACGAGGAAGCTAATTAACCTGACGCCACCACCTCTCTTTCCGGAGTCACCTAGTGCAG	4270 fluorescence intensity (a.u.)
GACGGAGCACCTTGATCAATGAGGATTAATTCCTTGGTCTCGGAGTCACCTAGTGCAG	8900 fluorescence intensity (a.u.)
ACAACCAGAGTGATTTCATCAGCCATGTCATCATCCATGACGGAGTCACCTAGTGCAG	10200 fluorescence intensity (a.u.)
CATAATTAGCGGTTGATTACTGTAGCATCACTGTAACAAACGGAGTCACCTAGTGCAG	3730 fluorescence intensity (a.u.)
CATCACACCTAACCGACTCCTTTTCCACACAAACAGATTACGGAGTCACCTAGTGCAG	20400 fluorescence intensity (a.u.)
GATGGTAGGGGAGGCGGTAGAGCCAAAGCCATAGCATCGGCGGAGTCACCTAGTGCAG	3360 fluorescence intensity (a.u.)
GCGCGGCGCGGAGCAGAGGAGGACGAAGCAGCAGGCGGCGCGGAGTCACCTAGTGCAG	4120 fluorescence intensity (a.u.)
GTTTACAGTACTAATGATAGCCACGTGTTTATTGCGGTTACGGAGTCACCTAGTGCAG	12100 fluorescence intensity (a.u.)
ACAACCCTTTCATTACCAGTCATCTCCTCCCACACTCAGCCGGAGTCACCTAGTGCAG	3520 fluorescence intensity (a.u.)
CCATGGTACAGTAGGGTTGTCGTCAATCTTGTGTTTCTTTCGGAGTCACCTAGTGCAG	3150 fluorescence intensity (a.u.)
TTTACCCTTTTGCCCAATGCTATTGCATTTACGTGCCATACGGAGTCACCTAGTGCAG	3580 fluorescence intensity (a.u.)
CTGCCAGCAGAACACACAGTGACACATTACACCACACACGCGGAGTCACCTAGTGCAG	3310 fluorescence intensity (a.u.)
